PubChem BioAssay AID1259254 – NCATS, 2017
Test: 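Genome-wide screen for genes that prevent DNA re-replication in cancer cells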 (primary screen). System: human HCT116 colorectal cancer cells. Reagent: single siRNA against human genes. Time to read-out: 3 days. Measurement: 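Nuclei stained with Hoechst and imaged; cell-cycle phase assigned by DNA content; G2 share scaled per plate, non-targeting siRNA 0%, GMNN siRNA 100%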. Direction: G2 robust z-score and G2 cells, % of GMNN control: higher = more G2 cells, more excess DNA replication. Call rule: 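Active siRNAs have a G2 robust z of 5 or more median absolute deviations over the median, which in these data means about 38% or higher of GMNN control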.
The deposit covers about 59,000 reagents; below is a part drawn at random. About 1,550 of them (2.6%) count as active. 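G2 share is only a proxy for re-replication; each gene was hit by three separate siRNAs, and active genes were retested.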 Reagents against one gene are numbered here. Not all columns of the deposit are shown. Not stated in the record: the amount of reagent.

OR56B1 #1 — G2 robust z-score = -0.977; G2 cells, % of GMNN control = -3.9; Call = inactive
OR56B1 #2 — G2 robust z-score = 0.0163; G2 cells, % of GMNN control = 3.08; Call = inactive
OR56B1 #3 — G2 robust z-score = -0.88; G2 cells, % of GMNN control = -3.22; Call = inactive
C19orf67 #1 — G2 robust z-score = 1.73; G2 cells, % of GMNN control = 15.2; Call = inactive
C19orf67 #2 — G2 robust z-score = 1.49; G2 cells, % of GMNN control = 13.4; Call = inactive
C19orf67 #3 — G2 robust z-score = -0.506; G2 cells, % of GMNN control = -0.595; Call = inactive
COL11A1 #1 — G2 robust z-score = -0.34; G2 cells, % of GMNN control = 0.574; Call = inactive
COL11A1 #2 — G2 robust z-score = 0.26; G2 cells, % of GMNN control = 4.8; Call = inactive
COL11A1 #3 — G2 robust z-score = -0.407; G2 cells, % of GMNN control = 0.106; Call = inactive
LINC02687 #1 — G2 robust z-score = 0.235; G2 cells, % of GMNN control = 4.62; Call = inactive
LINC02687 #2 — G2 robust z-score = 0.793; G2 cells, % of GMNN control = 8.55; Call = inactive
LINC02687 #3 — G2 robust z-score = -1.12; G2 cells, % of GMNN control = -4.92; Call = inactive

Next part, starting with the last 3 of the part before.
LINC02687 #1 — G2 robust z-score = 0.235; G2 cells, % of GMNN control = 4.62; Call = inactive
LINC02687 #2 — G2 robust z-score = 0.793; G2 cells, % of GMNN control = 8.55; Call = inactive
LINC02687 #3 — G2 robust z-score = -1.12; G2 cells, % of GMNN control = -4.92; Call = inactive
CEND1 #1 — G2 robust z-score = -1.71; G2 cells, % of GMNN control = -9.07; Call = inactive
CEND1 #2 — G2 robust z-score = 0.461; G2 cells, % of GMNN control = 6.21; Call = inactive
CEND1 #3 — G2 robust z-score = 2.24; G2 cells, % of GMNN control = 18.7; Call = inactive
DHRS7C #1 — G2 robust z-score = 0.00354; G2 cells, % of GMNN control = 2.99; Call = inactive
DHRS7C #2 — G2 robust z-score = -0.446; G2 cells, % of GMNN control = -0.171; Call = inactive
DHRS7C #3 — G2 robust z-score = -1.11; G2 cells, % of GMNN control = -4.83; Call = inactive
ASTN2 #1 — G2 robust z-score = 1.31; G2 cells, % of GMNN control = 12.2; Call = inactive
ASTN2 #2 — G2 robust z-score = -0.451; G2 cells, % of GMNN control = -0.204; Call = inactive
ASTN2 #3 — G2 robust z-score = 1.94; G2 cells, % of GMNN control = 16.6; Call = inactive
EXOC3L4 #1 — G2 robust z-score = 0.0128; G2 cells, % of GMNN control = 3.06; Call = inactive
EXOC3L4 #2 — G2 robust z-score = -0.969; G2 cells, % of GMNN control = -3.85; Call = inactive
EXOC3L4 #3 — G2 robust z-score = 0.239; G2 cells, % of GMNN control = 4.65; Call = inactive
